Experimental data reported in patent US20040018957A1, “Crystal structure of a Ras-P13K complex” (priority 2000, published 2004).
The name of at least one read-out is uncertain.

Protein sequences, listed by entry. Tags and fused reporters are not part of them. Residues count along the entry.
UniProt P48736, 144-1102: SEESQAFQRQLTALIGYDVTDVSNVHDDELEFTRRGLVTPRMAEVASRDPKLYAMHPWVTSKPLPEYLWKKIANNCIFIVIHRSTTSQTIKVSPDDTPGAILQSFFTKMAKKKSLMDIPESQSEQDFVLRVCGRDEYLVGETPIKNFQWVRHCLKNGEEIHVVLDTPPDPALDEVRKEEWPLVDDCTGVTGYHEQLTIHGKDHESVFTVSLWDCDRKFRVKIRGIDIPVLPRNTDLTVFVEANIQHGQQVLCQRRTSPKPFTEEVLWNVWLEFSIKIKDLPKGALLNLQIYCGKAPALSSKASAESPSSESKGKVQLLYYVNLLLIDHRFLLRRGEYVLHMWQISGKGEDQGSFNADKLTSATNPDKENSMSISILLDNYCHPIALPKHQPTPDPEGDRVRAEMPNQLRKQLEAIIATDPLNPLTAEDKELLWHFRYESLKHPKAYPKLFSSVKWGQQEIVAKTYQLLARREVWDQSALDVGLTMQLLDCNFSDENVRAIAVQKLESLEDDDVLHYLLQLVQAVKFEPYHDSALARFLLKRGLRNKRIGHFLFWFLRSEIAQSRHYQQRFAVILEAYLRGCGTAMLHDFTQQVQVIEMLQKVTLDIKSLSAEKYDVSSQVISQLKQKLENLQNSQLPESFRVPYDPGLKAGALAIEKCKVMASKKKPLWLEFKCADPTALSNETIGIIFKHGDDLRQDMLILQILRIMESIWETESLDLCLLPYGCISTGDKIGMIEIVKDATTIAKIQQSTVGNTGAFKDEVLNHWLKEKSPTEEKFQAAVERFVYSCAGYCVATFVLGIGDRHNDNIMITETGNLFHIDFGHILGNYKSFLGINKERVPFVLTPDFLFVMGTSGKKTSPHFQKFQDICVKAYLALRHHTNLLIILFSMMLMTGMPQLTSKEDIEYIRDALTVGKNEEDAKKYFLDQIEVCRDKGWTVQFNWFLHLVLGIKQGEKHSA

Biological target: T1, PI3K (Homo sapiens, UniProt P48736)
T1 construct: a construct containing residues 144-1102 of the human PI3Kγ with a C-terminal His6 tag; His6 (C); made in house; host or cells: Sf9 insect cells (baculovirus, pVL1393)
Experiment: Steady state and kinetic measurements of mant-ATP and mant-ADP binding
Conditions: 6 μM H-ras.GMPPNP
Experimental: Equilibrium binding of mant-ATP to PI3K was measured in a SLM 8000 S spectrofluorimeter with λex=280 nm and […]. This allowed monitoring of energy transfer from tryptophan in the PI3K to mant-ATP. Mant-ATP was titrated into a 1 μM solution of PI3K in running buffer. Each data point represents the average of data collected for 30 seconds with a 1 second integration time. For data collected in the presence of Ras, the solution also contained 6 μM H-ras.GMPPNP. The data were fitted to the binding equation with Kaleidagraph.
All kinetic data were collected in a Hi-Tech Na61 instrument set up in the single push mode with λex=280 nm and emission monitored with 399 nm cutoff filters. A solution of PI3K was mixed a solution of mant-ATP such that the final PI3K concentration was 1 μM and the ATP concentrations were 2.5, 5. 7.5, 10, 12.5, and 25 μM. The displacement experiment was carried out by mixing 1 μM PI3K and 2 μM mant-ATP with 50 or 200 μM ATP. Curve fits were carried out with the Hi-Tech software and Kaleidagraph. Equilibrium and kinetic data for mant-ADP were collected by the same methods.

| Substance | change of dissociation rate constants and Kd in the presence of Ras |
| --- | --- |
| mant-ADP | neither the dissociation rate constants nor the Kd for either mant-ATP or mant-ADP change |
| mant-ATP | neither the dissociation rate constants nor the Kd for either mant-ATP or mant-ADP change |
